Measured values taken from patent publication US11865126B2, “Method for treating anxiety disorders, headache disorders, and eating disorders with psilocybin” (priority 2019, dated 2024).
“Also recorded” adds a separate entry of the source. At least one structure is not confirmed: it was looked up by name or label, or the drawing left a doubt.

Assays:
healthy subjects = assay: Pictorial Empathy Test (PET); format: in vivo, human; settings: Day 7 and Day 84
Method: In some embodiments, the Pictorial Empathy Test (PET) is utilized to evaluate the effect of psilocybin on affective empathy.
The following list of outcome measures are non-exhaustive. • a. The short-term change from Baseline (Day −1 [Visit 2]) to Day 7 (Visit 5) in cognitive measures of attention, spatial and working memory and executive function was measured by a composite score of the CANTAB Panel (Spatial Working Memory [SWM], Rapid Visual Information Processing [RVP], Paired Associates Learning [PAL]). • b. The short-term change from Baseline (Day −1 [Visit 2]) to Day 7 (Visit 5) in Social Cognition Panel scales (Pictorial Empathy Test [PET], Reading the Mind in the Eyes Test [RMET], Toronto Empathy Questionnaire [TEQ], Social Value Orientation [SVO], Scale of Social Responsibility [SSR]). • c. The change from Baseline (Day −1 [Visit 2]) to Day 28 (Visit 6) in cognitive measures of attention, spatial and working memory and executive function as measured by a composite score of the CANTAB Panel (SWM, RVP, PAL). • d. […] Dose-related differences between cognitive effects of psilocybin at Baseline (Day −1 [Visit 2]), Day 7 (Visit 5) and Day 28 (Visit 6), as measured by a composite score of the CANTAB Panel (SWM, RVP, PAL). • f. […] Reading the Mind in the Eyes Test (RMET) (performed at Visit 2, Visit 5, and Visit 7). • iii. […]

[1] = test system: healthy psychedelic-naïve participants; assay: Social connectedness scale, healthy volunteer study (1 mg then 25 mg); format: in vivo, human

With `CN(C)CCc1c[nH]c2cccc(OP(=O)(O)O)c12` [psilocybin] the “PET, change from baseline compared to placebo” value (healthy subjects; 10 mg and 25 mg) was “no difference; also recorded: no consistent or noteworthy trends”, the “Reduction in PET score, 10 mg vs 25 mg” value (healthy subjects) was “greater with 10 mg than 25 mg psilocybin” and the “Social connectedness scale score vs baseline” value ([1]; 2 weeks) was “significantly increased”. For the same compound, the “Social connectedness scale score vs baseline” value ([1]; week 4) was “sustained (at trend level)”.
